Values of other authors as cited in patent US20100075926A1, “ACTIVATION OF HISTONE DEACETYLASE 1 (HDAC1) PROTECTS AGAINST DNA DAMAGE AND INCREASES NEURONAL SURVIVAL” (priority 2008, published 2010).
At least one structure is not confirmed: it was looked up by name or label, or the drawing left a doubt.

Conditions: in vivo; cited from earlier work

## CC(=O)N(O)CCCCCNC(=O)CCC(=O)N(O)CCCCCNC(=O)CCC(=O)N(O)CCCCCN [deferoxamine]
  efficacy in hypoxic-ischemic brain injury: efficacious in ameliorating hypoxic-ischemic brain injury
